Some entries share one result that the patent states for a list of compounds. For some assays here: At least one structure is not confirmed: it was looked up by name or label, or the drawing left a doubt.
Assays:
[1] = target: T1, glucocorticoid receptor (GR) (Homo sapiens, UniProt P04150); test: Ligand binding assay (GR BIND), 3H-dexamethasone displacement, HeLa cell lysate; details: calculated using DEX as a reference
T1 construct: endogenous in cells; host or cells: HeLa (ATCC) cell lysate supernatant
T1 sequence (P04150 1-777): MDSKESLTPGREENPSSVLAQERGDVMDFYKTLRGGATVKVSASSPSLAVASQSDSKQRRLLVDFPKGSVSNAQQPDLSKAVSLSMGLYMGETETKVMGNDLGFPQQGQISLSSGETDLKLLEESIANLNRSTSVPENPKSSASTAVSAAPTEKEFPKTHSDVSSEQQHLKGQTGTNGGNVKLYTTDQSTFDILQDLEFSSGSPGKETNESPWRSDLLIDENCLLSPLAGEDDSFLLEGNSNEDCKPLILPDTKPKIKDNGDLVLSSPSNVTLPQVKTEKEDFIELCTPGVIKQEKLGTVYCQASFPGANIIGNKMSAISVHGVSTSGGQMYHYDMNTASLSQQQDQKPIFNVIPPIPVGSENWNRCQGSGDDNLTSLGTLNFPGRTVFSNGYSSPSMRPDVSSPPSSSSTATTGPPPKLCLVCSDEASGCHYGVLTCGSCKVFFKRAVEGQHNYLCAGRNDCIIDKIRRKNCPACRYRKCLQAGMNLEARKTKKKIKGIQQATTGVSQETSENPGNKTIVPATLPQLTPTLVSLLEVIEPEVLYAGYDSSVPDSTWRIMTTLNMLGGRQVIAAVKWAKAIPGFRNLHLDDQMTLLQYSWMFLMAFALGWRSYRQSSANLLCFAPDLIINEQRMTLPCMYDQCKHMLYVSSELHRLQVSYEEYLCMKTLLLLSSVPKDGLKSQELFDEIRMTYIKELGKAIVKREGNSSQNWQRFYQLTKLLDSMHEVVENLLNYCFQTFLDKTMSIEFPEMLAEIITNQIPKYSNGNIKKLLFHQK
Protocol: Binding Buffer: TEGM (10 mM Tris-HCl, 1 mM EDTA, 10% glycerol, 1 mM beta-mercaptoethanol, 10 mM Sodium Molybdate, pH 7.2)
50% HAP Slurry: Calbiochem Hydroxylapatite, Fast Flow, in 10 mM Tris, pH 8.0 and 1 mM EDTA.
Wash Buffer: 40 mM Tris, pH7.5, 100 mM KCl, 1 mM EDTA and 1 mM EGTA.
Dexmethasone-methyl-^3H, (DEX*); (Amersham cat# TRK645)
Dexamethasone (DEX) (Sigma, cat# D1756):
Phenol red-free Trypsin-EDTA is diluted in the same PBS 1:10. The cell layers are rinsed with 1× Trypsin, extra Trypsin is poured out, and the cell layers are incubated at 37° C. for ˜2 min. The flask is tapped and checked for signs of cell detachment. Once the cells begin to slide off the flask, the complete media is added. The cells are counted at this point, then diluted to the appropriate concentration and split into flasks or dishes for further culturing (Usually 1:3 to 1:6 dilution).
Preparation of Hela Cell Lysate
The cell pellet is washed twice with TEGM (10 mM Tris-HCl, 1 mM EDTA, 10% glycerol, 1 mM beta-mercaptoethanol, 10 mM Sodium Molybdate, pH 7.2). After the final wash, the cells are resuspended in TEGM at a concentration of 10^7 cells/mL. The cell suspension is snap frozen in liquid nitrogen or ethanol/dry ice bath and transferred to −80° C. freezer on dry ice. Before setting up the binding assay, the frozen samples are left on ice-water to just thaw (˜1 hr). Then the samples are centrifuged at 12,500 g to 20,000 g for 30 min at 4° C. The supernatant is used to set-up assay right away. If using 50 μL of supernatant, the test compound can be prepared in 50 μL of the TEGM buffer.
Procedure for Multiple Compound Screening
1×TEGM buffer is prepared, and the isotope-containing assay mixture is prepared in the following order: EtOH (2% final concentration in reaction), 3H-DEX (Amersham Biosciences) and 1×TEGM. [e.g. For 100 samples, 200 μL (100×2) of EtOH+4.25 μL of 1:10 ^3H-Dex stock+2300 μL (100×23) 1×TEGM]. The compound is serially diluted, e.g., if starting final conc. is 1 μM, and the compound is in 25 μL of solution, for duplicate samples, 75 μL of 4×1 μM solution is made and 3 μL of 100 μM is added to 72 μL of buffer, and 1:5 serial dilution.
25 μL of ^3H-DEX (6 nM) trace and 25 μL compound solution are first mixed together, followed by addition of 50 μL receptor solution. The reaction is gently mixed, spun briefly at about 200 rpm and incubated at 4° C. overnight. 100 μL of 50% HAP slurry is prepared and added to the incubated reaction which is then vortexed and incubated on ice for 5 to 10 minutes. The reaction mixture is vortexed twice more to resuspend HAP while incubating reaction. The samples in 96-well format are then washed in wash buffer using The FilterMate™ Universal Harvester plate washer (Packard). The washing process transfers HAP pellet containing ligand-bound expressed receptor to Unifilter-96 GF/B filter plate (Packard). The HAP pellet on the filter plate is incubated with 50 μL of MICROSCINT (Packard) scintillant for 30 minutes before being counted on the TopCount microscintillation counter (Packard). IC50s are calculated using DEX as a reference.

human GR = target: T2, human GR (Homo sapiens, UniProt P04150); test: Trans-Activation Modulation of Glucocorticoid Receptor (GRAMMER), MMTV-LUC reporter gene; format: cell-based; parameters: endogenous in cells; details: GRAMMER versus GITAR
T2 sequence (P04150 1-777): T1 sequence (P04150 1-777)
From the text: Trans-Activation Modulation of Glucocorticoid Receptor (GRAMMER)
This assay assesses the ability of test compounds to control transcription from the MMTV-LUC reporter gene in lung adenocarcinoma A549 cells or HeLa cells, a human […] cell line that naturally expresses the human GR. The assay measures induction of a modified MMTV LTR/promoter linked to the LUC reporter gene.
The routine transient assay consists of plating 7,000-25,000 cells/well of a white, clear-bottom 96-well plate. Alternatively, 384-well plates can be used at a cell concentration of 10,000/well. The media that the cells are plated in is “exponential growth medium” which consists of phenol red-free RPMI1640 containing 10% FBS, 4 mM L-glutamine, 20 mM HEPES, 10 ug/mL human insulin, and 20 ug/mL gentamicin. Incubator conditions are 37° C. and 5% CO2. The transfection is done in batch mode. The cells are trypsinized and counted to the right cell number in the proper amount of fresh media. It is then gently mixed with the FuGene6/DNA mix and plated onto the 96 or 384-well plate, all the wells receive 100 uL or 40 uL, respectively, of medium+lipid/DNA complex then incubated 37° C. overnight. The transfection cocktail consists of serum-free OptiMEM, FuGene6 reagent and DNA. The manufacturer's (Roche Biochemical) protocol for cocktail setup is as follows: The lipid to DNA ratio is approximately 2.5:1 and the incubation time is 20 min at room temperature. Sixteen to 24 hours after transfection, the cells are treated with dexamethasone to a final concentration of 10 nM as well as the compound of interest, such that final DMSO (vehicle) concentration is equal to or less than 1%. Each plate also contains samples that are treated with 10 nM dexamethasone alone, which is used as the 100% activity control. The cells are exposed to the compounds for 24 hours. After 24 hours, the cells are lysed by a Promega cell culture lysis buffer for approximately 30 min and then the luciferase activity in the extracts is assayed in the 96-well format luminometer. In 384-well format, Steady-Glo (Promega) or Steady-Lite (PerkinElmer) can be used by adding an equal volume of reagent to the media present in each well. Activity induced by 10 nM dexamethasone alone is set at 100% activity. Antagonist activity is calculated by determining the decrease in dexamethasone-induced activity in response to compound treatment relative to samples that were treated with dexamethasone alone. […] This transactivation assay can be performed in an agonist and antagonist mode to identify these different activities. […]

| Compound | IC50 [1] [µM] | maximal transactivation activity compared with maximal transrepression activity (human GR) |
| --- | --- | --- |
| CO[C@@]1(CCc2ccc(C(F)(F)F)cc2C(N)=O)CCC2=Cc3c(cnn3-c3ccc(F)cc3)C[C@@]21C [Example 179, 2-{2-[(4αS,5R)-1-(4-fluorophenyl)-5-methoxy-4α-methyl-1,4,4α,5,6,7-hexahydrocyclopenta[f]indazol-5-yl]ethyl}-5-(trifluoromethyl)benzamide] | < 1 | maximal transactivation activity less then maximal transrepression activity |
| CC(C)(C)NC(=O)c1c(F)cccc1CC[C@]1(O)CCC2=Cc3c(cnn3-c3ccc(F)cc3)C[C@@]21C [Example 59, N-(tert-butyl)-2-fluoro-6-{2-[(4αS,5R)-1-(4-fluorophenyl)-5-hydroxy-4α-methyl-1,4,4α,5,6,7-hexahydrocyclopenta[f]indazol-5-yl]ethyl}benzamide] | < 1 | maximal transactivation activity less then maximal transrepression activity |
| C[C@]12Cc3cnn(-c4ccc(F)cc4)c3C=C1CC[C@@]2(O)CCc1ccc(F)cc1C(N)=O [Example 159, 5-fluoro-2-{2-[(4αS,5R)-1-(4-fluorophenyl)-5-hydroxy-4α-methyl-1,4,4α,5,6,7-hexahydrocyclopenta[f]indazol-5-yl]ethyl}benzamide] | < 1 | maximal transactivation activity less then maximal transrepression activity |
| CCOC(=O)NCc1ccccc1CC[C@]1(O)CCC2=Cc3c(cnn3-c3ccc(F)cc3)C[C@@]21C [Example 6, Ethyl(2-(2-[(4αS,5R)-1-(4-fluorophenyl)-5-hydroxy-4α-methyl-1,4,4α,5,6,7-hexahydrocyclopenta(f)indazol-5-yl]ethyl)benzyl)carbamate] | < 1 | maximal transactivation activity less then maximal transrepression activity |
| CCS(=O)(=O)NCc1c(F)cccc1CC[C@]1(O)CCC2=Cc3c(cnn3-c3ccc(F)cc3)C[C@@]21C [Example 84, N-(2-fluoro-6-{2-[(4αS,5R)-1-(4-fluorophenyl)-5-hydroxy-4α-methyl-1,4,4α,5,6,7-hexahydrocyclopenta[f]indazol-5-yl]ethyl}benzyl)ethanesulfonamide] | < 1 | maximal transactivation activity less then maximal transrepression activity |
| C[C@]12Cc3cnn(-c4ccc(F)cc4)c3C=C1CC[C@@]2(O)CCc1cccc(F)c1CO [Example 148, (4αS,5R)-5-{2-[3-fluoro-2-(hydroxymethyl)phenyl]ethyl}-1-(4-fluorophenyl)-4α-methyl-1,4,4α,5,6,7-hexahydrocyclopenta[f]indazol-5-ol] | < 1 | maximal transactivation activity less then maximal transrepression activity |
| CCNC(=O)Nc1ccc(F)cc1CC[C@]1(O)CCC2=Cc3c(cnn3-c3ccc(F)cc3)C[C@@]21C [Example 131, N-ethyl-N′-(4-fluoro-2-{2-[(4αS,5R)-1-(4-fluorophenyl)-5-hydroxy-4α-methyl-1,4,4α,5,6,7-hexahydrocyclopenta[f]indazol-5-yl]ethyl}phenyl)urea] | < 1 | maximal transactivation activity less then maximal transrepression activity |
| C[C@]12Cc3cnn(-c4ccc(F)cc4)c3C=C1CC[C@@]2(O)CCc1ccc(F)c(F)c1C(N)=O [Example 183, 2,3-difluoro-6-{2-[(4αS,5R)-1-(4-fluorophenyl)-5-hydroxy-4α-methyl-1,4,4α,5,6,7-hexahydrocyclopenta[f]indazol-5-yl]ethyl}benzamide] | < 1 | maximal transactivation activity less then maximal transrepression activity |
| C[C@]12Cc3cnn(-c4ccc(F)cc4)c3C=C1CC[C@@]2(O)CCc1cccc(F)c1C1(NS(=O)(=O)C2CC2)CC1 [Example 100, N-[1-(2-fluoro-6-{2-[(4αS,5R)-1-(4-fluorophenyl)-5-hydroxy-4α-methyl-1,4,4α,5,6,7-hexahydrocyclopenta[f]indazol-5-yl]ethyl}phenyl)cyclopropyl]cyclopropanesulfonamide] | < 1 | maximal transactivation activity less then maximal transrepression activity |
| C[C@]12Cc3cnn(-c4ccc(F)cc4)c3C=C1CC[C@@]2(O)CCc1ccccc1N1CCC1=O [Example 11, 1-(2-{2-[(4αS,5R)-1-(4-fluorophenyl)-5-hydroxy-4α-methyl-1,4,4α,5,6,7-hexahydrocyclopenta[f]indazol-5-yl]ethyl}phenyl)azetidin-2-one] | < 1 | maximal transactivation activity less then maximal transrepression activity |

From US8119681B2, “2-[1-phenyl-5-hydroxy or methoxy-4alpha-methyl-hexahydrocyclopenta [ƒ]indazole-5-YL]ethyl phenyl derivatives as glucocorticoid receptor ligands” (Merck Sharp & Dohme Corp., priority 2006, dated 2012)
